In patent publication US9365833B2, “Leucine zipper variant and use thereof” (Samsung Electronics Co., Ltd., priority 2013, dated 2016):
Some of these results come from one statement about several compounds together. At least one compound was matched to its structure with a doubt left.

System: osteosarcoma cell line SJSA-1
Test: cancer cell growth inhibition (CellTiter-Glo cell viability)
Type: cell-based
Conditions: at the maximum concentration (15 μM), 5 days, wild-type p53; FIG. 9

`COc1ccc(C2=N[C@@H](c3ccc(Cl)cc3)[C@@H](c3ccc(Cl)cc3)N2C(=O)N2CCNC(=O)C2)c(OC(C)C)c1` [Nutlin-3] was tested, and the “anticancer effects on SJSA-1” value was no less than 90%.
